Laboratory results: PubChem BioAssay AID504834 (National Center for Advancing Translational Sciences (NCATS), 2011)
The campaign covered roughly 320,000 compounds. About 22,000 (6.9%) were called active. This list was built around the results that the source calls inconclusive (neither active nor inactive); the mix of calls is not that of the screen. Calls follow the shape of the dose curve; as a rule, active = well fitted inhibition curve with a large enough effect; inconclusive = small, poorly fitted or top-dose-only effect, or another doubt; inactive = no such curve, though single readings can be large or run the other way. Potencies beside an inconclusive call are fits to weak or partial responses and may not hold up.

Assay: Primary qHTS for delayed death inhibitors of the malarial parasite plastid, 96 hour incubation
Details: P. falciparum luciferase reporter growth; series mostly up to 28.7 µM
How it was run: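 Erythrocytes infected with luciferase-expressing P. falciparum were dispensed at 2% hematocrit and 0.05% parasitemia (final), then incubated with compounds 96 hours at 37 C in 5% CO2. Luminescence after detection reagent addition reported growth.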
Potency is read from the fitted curve at half-maximal effect.

| Compound | Potency |
| --- | --- |
| OC(CNCCCN1CCCCC1)COc1ccccc1 (stereo not given) | inconclusive: 4.15 µM [inhibitor, partial curve] |
| CCC(C)NC(=O)CSc1nc2ccccc2c(=O)n1Cc1ccc(OC)cc1 (stereo not given) | active: 1.65 µM |
| COc1cc2c3cc1Oc1cc(ccc1O)C[C@@H]1c4c(cc(OC)c(O)c4Oc4ccc(cc4)C[C@H]3N(C)CC2)CCN1C | active: 1.65 µM |
| Cc1ccc(NC(=O)c2ccc(-c3nn(C)c(=O)c4ccccc34)cc2)cc1 | active: 10.4 µM |
| Cc1ccc(C(C(=O)NCc2ccco2)N(C(=O)Cn2nnc3ccccc32)c2ccccc2)o1 (stereo not given) | inactive |
| CC(C)CNC(=S)N(CCN(C)C)Cc1cc2cc3c(cc2[nH]c1=O)OCCO3 | inconclusive: 10.4 µM [inhibitor, single point] |
| Cc1nnc(NCc2cccc(Cl)c2)c2ccccc12 | inconclusive: 9.28 µM [inhibitor, partial curve, poor fit] |
| O=C(NCc1ccccc1F)C1CCC(=O)N(Cc2ccc(Cl)cc2)C1 (stereo not given) | inconclusive: 18.5 µM [inhibitor, single point] |
| CCCNC(=S)Nc1ccc(Cl)cc1Cl | inactive |
| CCN(CC)S(=O)(=O)c1ccc(N2CC(C(=O)NCc3ccc4c(c3)OCO4)CC2=O)cc1 (stereo not given) | inconclusive: 8.28 µM [inhibitor, single point] |
| CN(C)CCCN(C(=O)COc1ccccc1)c1nc2cc3c(cc2s1)OCCO3 | inconclusive: 18.5 µM [inhibitor, single point] |
| CC(C)(C)NCC(O)c1cc(Cl)c(N)c(C(F)(F)F)c1 (stereo not given) | active: 8.49 µM |
| CC(=O)N1CCN(c2ccc(NC(=O)c3ccc(Br)o3)cc2Cl)CC1 | inconclusive: 10.4 µM [inhibitor, single point] |
| CCOc1ccc(NC(=S)C(C#N)=C2N(C)c3ccccc3N2C)cc1 | inconclusive: 18.5 µM [inhibitor, single point] |
| CC(=O)O[C@@H]1[C@H]2[C@@H](C[C@@H](C)[C@@H]3C=CC(=O)[C@@]13C)OC(=O)[C@@H]2C | inconclusive: 18.5 µM [inhibitor, single point] |
| O=C(CCC1CCCN(C(=O)c2cncs2)C1)NCc1ccc(F)c(F)c1 (stereo not given) | active: 8.28 µM |
| CC(C)/C=N/NC(=O)c1cccc(N2CCCC2=O)c1 | inconclusive: 11.7 µM [inhibitor, partial curve] |
| Cc1cccc(C)c1N1C(=O)c2ccccc2C1=O | inconclusive: 0.0041 µM [inhibitor, full curve, poor fit] |
| COc1ccc(CC(=O)Nc2c(C(=O)N3CCN(c4ncccn4)CC3)oc3ccccc23)cc1 | inactive |
| Cc1cccc(C)c1NC(=O)CNC(=O)c1cccc(S(=O)(=O)NCc2cccs2)c1 | inactive |
| Cc1ccc(C(=O)N2CCN(C)CC2)cc1S(=O)(=O)N1CCOCC1 | inconclusive: 18.5 µM [inhibitor, single point] |
| COc1ccc(C(=O)SC2=NCCS2)cc1OC | inactive |
| c1ccc(Sc2nc(N3CCCCC3)nc(N3CCCCC3)n2)nc1 | inconclusive: 0.0026 µM [inhibitor, full curve, poor fit] |
| CCN(CC)C(=O)c1ccc2c(c1[N+](=O)[O-])C(=O)c1ccccc1C2=O | inconclusive: 13.1 µM [inhibitor, single point] |
| CCC(C(=O)OCCOCCN(CC)CC)c1ccccc1 (stereo not given) | inconclusive: 18.5 µM [inhibitor, single point] |

As a working copy, some entries already given.

| Compound | Potency |
| --- | --- |
| Cc1cccc(C)c1NC(=O)CNC(=O)c1cccc(S(=O)(=O)NCc2cccs2)c1 | inactive |
| Cc1ccc(C(=O)N2CCN(C)CC2)cc1S(=O)(=O)N1CCOCC1 | inconclusive: 18.5 µM [inhibitor, single point] |

Next entries follow.

| Compound | Potency |
| --- | --- |
| Cn1c(-c2ccccc2)cc(=O)c2ccccc21 | inactive |
| Cc1nc2oc3c(NCc4ccccn4)ncnc3c2c2c1COC(C)(C)C2 | inconclusive: 18.5 µM [inhibitor, single point] |
| CC(C)CNC(=S)N1CCN(C(c2ccccc2)c2ccccc2)CC1 | active: 2.08 µM |
| O=C(CNC(=O)c1ccccc1)NCC(O)c1ccc([N+](=O)[O-])cc1 (stereo not given) | inactive |
| NC(=S)Nc1cccc(F)c1 | inactive |
| COc1ccc(-c2ocnc2C(=O)N2CCN(C(c3ccccc3)c3ccccc3)CC2)cc1 | inactive |
| Cc1ccccc1COC(=O)CCC1=NS(=O)(=O)c2ccccc2N1 | active: 11.7 µM |
| O=C(c1cccc(C(F)(F)F)c1)C1CCCN(Cc2ncc[nH]2)C1 (stereo not given) | inconclusive: 14.7 µM [inhibitor, single point] |
| COc1cc(C(=O)Nc2cccc(S(=O)(=O)N3CCCC3)c2)c([N+](=O)[O-])cc1OC | inactive |
| Fc1ccc2nc(Nc3nc4c(F)cc(F)cc4s3)sc2c1 | active: 10.4 µM |
| O=C(Cn1nnc2ccccc21)C1CC1 | inactive |
| O=C(C[n+]1ccccc1)NNc1ccccc1 | inconclusive: 18.5 µM [inhibitor, single point] |
| O=C(Nc1ccn(-c2ccccc2)n1)c1ccccc1Br | inactive |
| COc1ccc(NC(=O)/C(C#N)=C\c2ccc(Br)o2)cc1 | inactive |
| Cc1ccc(-n2nc3c(c2NC(=O)c2cccs2)CS(=O)(=O)C3)cc1C | inactive |
| O=C(NC1CC1)C1=C[C@@H](c2csc3ccccc23)C[C@@H](OCc2ccc(CO)cc2)O1 | active: 13.1 µM |
| CCOC(=O)Nc1sc(NS(=O)(=O)c2ccccc2)nc1C | inactive |
| COc1ccc(C(=O)NCCOc2cccc(OC)c2)cc1 | inactive |
| N/C(=N\OC(=O)N1CCOCC1)c1ccc(Cl)cc1 | inconclusive: 11.7 µM [inhibitor, single point] |
| COc1ccc(N(S(=O)(=O)c2ccccc2)S(=O)(=O)c2ccccc2)c(N)c1 | inactive |
| COC(=O)C1=C(Nc2ccccc2NC(=O)CCCC(=O)O)CSC1 | inactive |
| COC(=O)c1ccc(NC(=S)NC(=O)c2c(Cl)cnn2C)cc1 | inconclusive: 2.33 µM [inhibitor, single point] |
| Cc1cc(S(=O)(=O)N2CCC3(CC2)OCCN3S(=O)(=O)c2cccs2)ccc1F | inconclusive: 10.4 µM [inhibitor, single point] |
| CCC(C)NC(=O)c1cc2c(=O)n(CC)c3ccccc3c2s1 (stereo not given) | inconclusive: 9.28 µM [inhibitor, partial curve] |
| Cc1cccc(OCC(=O)N2CCC(c3ccccc3)C2)c1 (stereo not given) | inconclusive: 0.0657 µM [inhibitor, full curve, poor fit] |
